# Measured values: PubChem BioAssay AID1347076 (National Center for Advancing Translational Sciences (NCATS), 2019)
# The campaign covered roughly 400,000 compounds. About 13,000 (3.2%) were called active. This list was built around the results that the source calls inconclusive (neither active nor inactive); the mix of calls is not that of the screen. Calls follow the shape of the dose curve; as a rule, active = well fitted cell-killing curve with a large enough effect; inconclusive = small, poorly fitted or top-dose-only effect, or effect the other way; inactive = flat fitted curve, though single readings scatter. Potencies beside an inconclusive call are fits to weak or partial responses and may not hold up.
# Assay: qHTS assay for MDR1-selective chemotherapeutics: Primary screen using the drug-selected MDR subline cells KB-V1; also: nearly all actives have a fitted effect of over 60% in size
# Details: KB-V1 MDR cells viability, CellTiter-Glo, 72 h; activity change, negative = cytotoxicity: at 46.1 µM (top of the series)
# How it was run: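 Drug-selected KB-V1 cells, grown in DMEM lacking phenol red with 10% FBS, receive compound titrations; after three days at 37 degrees C, surviving cell ATP is quantified by CellTiter-Glo luminescence and responses normalized and curve-fitted.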
# % is scaled to controls: 0 for no effect and ±100 for the full control effect; potency is read from the fitted curve at half-maximal effect.
SMILES,Potency,"activity change, negative = cytotoxicity"
CCOC(=O)c1c(C)[nH]c(C(=O)COC(=O)c2c(CC)noc2C)c1C,"inconclusive: 18.4 µM [cytotoxic, single point]",–
CCC(=O)c1ccc(OCC(=O)Nc2ccccc2C(=O)NC2CC2)cc1,"inconclusive: 1.64 µM [cytotoxic, full curve]",–
Cc1ccc(S(=O)(=O)NC(C)C(=O)Nc2ccccc2C(=O)N2CCCC2)cc1 (stereo unspecified),"inconclusive: 10.3 µM [cytotoxic, partial curve]",–
Cc1cc(C)cc(CC(=O)N2CCC2(C)C(=O)NS(=O)(=O)c2ccc(Cl)s2)c1 (stereo unspecified),–,inactive: -7.85%
COc1ccc(CC2(c3ccccc3)NC(=O)NC2=O)cc1 (stereo unspecified),"inconclusive: 20.6 µM [cytotoxic, single point]",–
CC1(C)c2ssc(=S)c2-c2ccccc2N1C(=O)CSC1=NCCS1,active: 16.4 µM,–
CCc1ccc(CN2CCN(C(=O)c3cccc(OC)c3OC)CC2)cc1,"inconclusive: 10 µM [cytotoxic, partial curve]",–
COc1cccc(CNCCO)c1OCc1ccc(Cl)cc1,–,inactive: -24.8%
O=[N+]([O-])c1ccc(S(=O)(=O)N/N=C/c2ccsc2)cc1,–,inactive: 8.36%
COc1cc(SC)ccc1C(=O)Nc1ccc(Br)cn1,active: 18.4 µM,–
NC(=S)NN=C1Cc2cccc3cccc1c23,active: 1.3 µM,–
COCCC1CCCCN1C(=O)c1ccc2nc(Cc3ccccc3F)oc2c1 (stereo unspecified),"inconclusive: 9.2 µM [cytotoxic, partial curve]",–
COc1ccc(NC(=O)CCn2c(=O)c3cccn3c3ccccc32)cc1,–,inactive: -0.542%
Cc1nc2c(OCc3ccc(F)c(F)c3)cccn2c1N(C)C(=O)CCC1CCCC1,–,inactive: -21%
CCOC(=O)c1ccccc1NC(=O)c1cn(-c2ccc(C)c(C)c2)c(=O)c2ccccc12,"inconclusive: 16.4 µM [cytotoxic, partial curve, poor fit]",–
CCOc1ccccc1-n1c(SCC(=O)N2CCOCC2)nc2ccccc2c1=O,"inconclusive: 2.59 µM [cytotoxic, full curve]",–
COCC(=O)N1CCC(Oc2ccc(C(=O)NCc3cc(C)no3)cc2)CC1,"inconclusive: 29.1 µM [rising, single point]",–
COc1cc(/C=N/NC(=O)c2cccc(NC(=O)c3ccccc3)c2)ccc1O,–,inactive: 24.4%
O=[N+]([O-])c1ccccc1/C=N/Nc1nccnc1Cl,"inconclusive: 20.6 µM [cytotoxic, single point]",–
O=C(CSc1ccccc1F)NCCN1C(=O)CSC1=O,–,inactive: 1.87%
CCOC(=O)c1c(C)[nH]c(C)c1S(=O)(=O)N1CCC(C(=O)NCc2ccccc2)CC1,"inconclusive: 23.1 µM [rising, partial curve, poor fit]",–

# 3 entries already listed, ordered by length of the SMILES, low to high:
SMILES,Potency,"activity change, negative = cytotoxicity"
COc1ccc(CC2(c3ccccc3)NC(=O)NC2=O)cc1 (stereo unspecified),"inconclusive: 20.6 µM [cytotoxic, single point]",–
CCC(=O)c1ccc(OCC(=O)Nc2ccccc2C(=O)NC2CC2)cc1,"inconclusive: 1.64 µM [cytotoxic, full curve]",–
COCC(=O)N1CCC(Oc2ccc(C(=O)NCc3cc(C)no3)cc2)CC1,"inconclusive: 29.1 µM [rising, single point]",–
